In PubChem BioAssay AID192 (DTP/NCI, 2004):
The list does not hold the whole screen: it gathers tests that were run many times, whatever their T/C, doses with no T/C, and many T/C values between a quarter and a half above the control. Other doses and runs of a compound stand elsewhere. T/C gives the treated animals as a percentage of the vehicle group. Some doses have a count of surviving animals in place of a T/C: the source holds a T/C of zero for them, seemingly a mark for toxic or unscored doses. Some survivor counts are full or nearly so, which does not show that the dose was tolerated: survival well below the control is almost never listed, so the zero probably covers shortened survival too. Survivors were counted at the toxicity check, usually on the fifth day, unless a day is given; later deaths do not show. Schedules are NCI's codes, read here as Q, the interval in days (D) or hours (H), X, the number of doses. Marks such as (2×) count equal records among those shown. Some doses were run more than once; their values stand side by side, smallest first. For survival time, this PubChem deposit counts one and a half times the control or more as active, and values a quarter to a half above the control carry no call in these data; other NCI protocols may use other cut-offs. Some T/C values are followed by the survivors on the day toxicity was checked, most often the fifth; without a count, all were alive then.

Tested on: BDF1 mice, B16 melanoma ip, median survival T/C
Test: NCI In Vivo Anticancer Drug Screen. Data for tumor model B16 Melanoma (intraperitoneal) in B6D2F1 (BDF1) mice
Conditions: T/C endpoint: median survival time, higher T/C = longer survival
In short: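 Survival or tumor size is measured after treatment of tumor-bearing mice and normalised to the vehicle-treated control group.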

[1] = dose: 100.0 mg/kg/injection, schedule: Q01DX009 (ip), vehicle: saline with Tween-80
[2] = dose: 400.0 mg/kg/injection, schedule: Q01DX009 (ip), vehicle: saline with Tween-80
[3] = dose: 200.0 mg/kg/injection, schedule: Q04DX003 (ip), vehicle: Klucel (hydroxypropylcellulose) (HPC)
[4] = dose: 400.0 mg/kg/injection, schedule: Q04DX003 (ip), vehicle: Klucel (hydroxypropylcellulose) (HPC)
[5] = dose: 200.0 mg/kg/injection, schedule: Q01DX009 (ip), vehicle: Klucel (hydroxypropylcellulose) (HPC)
[6] = dose: 400.0 mg/kg/injection, schedule: Q01DX009 (ip), vehicle: Klucel (hydroxypropylcellulose) (HPC)
[7] = dose: 50.0 mg/kg/injection, schedule: Q01DX009 (ip), vehicle: saline with Tween-80
[8] = dose: 100.0 mg/kg/injection, schedule: Q01DX009 (ip), vehicle: Klucel (hydroxypropylcellulose) (HPC)
[9] = dose: 32.0 mg/kg/injection, schedule: Q01DX009 (ip), vehicle: saline

With `COC(=O)C1(C(=O)OC)CC1CCl` (stereo not given) the survivor count (dose: 400.0 mg/kg/injection, schedule: Q04DX003 (ip), vehicle: saline with Tween-80) was 10 of 10.

For `CCC(CC)c1ccccn1`, the survivor count (dose: 400.0 mg/kg/injection, schedule: Q01DX009 (ip), vehicle: carboxymethylcellulose (CMC)) was 3 of 10.

With `COc1ccc(S(=O)(=O)N=N/C=C2\C=CC=CN2O)cc1OC` the T/C [1] was 137 % of control.

`CSCCC1NC(=O)C(C(C)=Nc2ccccc2)=C1O` (stereo not given) was tested, and the survivor count [2] was 10 of 10.

In the case of `Nc1nc(Cl)c2[nH]cnc2n1`, the survivor count (dose: 0.38 mg/kg/injection, schedule: Q01DX009 (ip), vehicle: other) is reported as 8 of 10, the survivor count (dose: 1.5 mg/kg/injection, schedule: Q01DX009 (ip), vehicle: other) is reported as 9 of 10 and the survivor count (dose: 1.6 mg/kg/injection, schedule: Q01DX009 (ip), vehicle: other) is reported as 6 of 10. The survivor count (dose: 3.12 mg/kg/injection, schedule: Q01DX009 (ip), vehicle: other) was 3 of 10, the survivor count (dose: 6.25 mg/kg/injection, schedule: Q01DX009 (ip), vehicle: other) was 9 of 10 and the survivor count (dose: 12.5 mg/kg/injection, schedule: Q01DX009 (ip), vehicle: other) was 7 of 10. For the same compound, the survivor count (dose: 100.0 mg/kg/injection, schedule: Q01DX009 (ip), vehicle: other) was 8 of 10, the survivor count (dose: 200.0 mg/kg/injection, schedule: Q01DX009 (ip), vehicle: other) was 2 of 10 and the survivor count (dose: 400.0 mg/kg/injection, schedule: Q01DX009 (ip), vehicle: other) was 0 of 10.

`CCCCCCCCCCCCCCCCCCNC(=O)Nc1ccc(C(C)C)cc1` was tested, and the survivor count (dose: 50.0 mg/kg/injection, schedule: Q04DX003 (ip), vehicle: Klucel (hydroxypropylcellulose) (HPC)) was 10 of 10, the survivor count [3] was 10 of 10 and the survivor count [4] was 10 of 10.

With `CCN(c1ccccc1C)S(=O)(=O)c1ccccc1` the survivor count [5] was 10 of 10 and the survivor count [6] was 10 of 10.

With `COc1ccc(/C=C\C(=O)/C=C/c2ccc(OC)cc2)cc1` the survivor count [3] was 10 of 10 and the survivor count [4] was 9 of 10.

`CCCCN(CCCC)CCC(=O)c1ccc(OC)c2ccccc12` was tested, and the survivor count [7] was 10 of 10.

With `O=S(=O)(O)O` the survivor count [8] was 10 of 10 and the survivor count [5] was 0 of 10.

With `CC(/C=N/N=C(N)N)=N\NC(N)=S` the survivor count (dose: 200.0 mg/kg/injection, schedule: Q01DX009 (ip), vehicle: distilled water + Tween-80) was 10 of 10 and the survivor count (dose: 400.0 mg/kg/injection, schedule: Q01DX009 (ip), vehicle: distilled water + Tween-80) was 0 of 10.

With `Nc1nc([Se])c2ncn(C3OC(CO)C(O)C3O)c2n1` (stereo not given) the T/C (dose: 1.0 mg/kg/injection, schedule: Q01DX009 (ip), vehicle: saline) was 136 % of control, the T/C (dose: 16.0 mg/kg/injection, schedule: Q01DX009 (ip), vehicle: saline) was 130 % of control and the T/C [9] was 126 % of control. For the same compound, the survivor count [9] was 9 of 10 and the survivor count (dose: 64.0 mg/kg/injection, schedule: Q01DX009 (ip), vehicle: saline) was 9 of 10 (2×).

With `COc1cccc2c1C(=O)c1c(O)c3c(c(O)c1C2=O)CC(O)(/C(C)=N/NC(=O)CCCCC(=O)N/N=C(\C)C1(O)Cc2c(O)c4c(c(O)c2C(OC2CC(N)C(O)C(C)O2)C1)C(=O)c1c(OC)cccc1C4=O)CC3OC1CC(N)C(O)C(C)O1` (stereo not given) the T/C (dose: 0.75 mg/kg/injection, schedule: Q01DX009 (ip), vehicle: water) was 144 % of control and the survivor count (dose: 12.0 mg/kg/injection, schedule: Q01DX009 (ip), vehicle: water) was 10 of 10.

`CC1=NCCc2c1cc1c([nH]c3ccccc31)c2C` was tested, and the T/C [7] was 128 % of control and the survivor count [1] was 9 of 10.

With `N#C/C(=C\c1ccncc1)c1csc2ccccc12` the survivor count [5] was 9 of 10 and the survivor count [6] was 10 of 10.

In the case of `COc1cccc2c1C(=O)c1c(O)c3c(c(O)c1C2=O)C[C@@](O)(/C(C)=N/NC(=O)c1ccc(Cl)cc1)C[C@@H]3OC1CC(N)C(O)C(C)O1` (stereo not given in full), the T/C (dose: 5.0 mg/kg/injection, schedule: Q01DX001 (ip), vehicle: water) is reported as 126 % of control [7 of 10 alive], the survivor count (dose: 16.0 mg/kg/injection, schedule: Q01DX009 (ip), vehicle: suspension in saline) is reported as 10 of 10 and the survivor count (dose: 20.0 mg/kg/injection, schedule: Q01DX001 (ip), vehicle: water) is reported as 5 of 10. For the same compound, the survivor count (dose: 40.0 mg/kg/injection, schedule: Q01DX001 (ip), vehicle: water) was 1 of 10 and 9 of 10 and the survivor count (dose: 80.0 mg/kg/injection, schedule: Q01DX001 (ip), vehicle: water) was 7 of 10.

`C1CC[N-]CC1.C1CC[N-]CC1.CS(C)=O.[Cl][Rh]([Cl])[Cl]` was tested, and the survivor count (dose: 20.0 mg/kg/injection, schedule: Q01DX009 (ip), vehicle: saline with Tween-80) was 4 of 10 and the survivor count (dose: 40.0 mg/kg/injection, schedule: Q01DX009 (ip), vehicle: saline with Tween-80) was 1 of 10.

For `O=C(OCCOCCOCCOC(=O)c1ccccc1)c1ccccc1`, the T/C [8] was 126 % of control [9 of 10 alive] and the T/C [5] was 126 % of control.

With `COc1c2c([n+](C)c3c(OC)cccc13)OC(C(C)C)C2` (stereo not given) the survivor count (dose: 2.0 mg/kg/injection, schedule: Q01DX009 (ip), vehicle: saline sonified) was 6 of 6, the survivor count (dose: 3.0 mg/kg/injection, schedule: Q01DX009 (ip), vehicle: saline) was 2 of 10 and the survivor count (dose: 6.0 mg/kg/injection, schedule: Q04DX003 (ip), vehicle: saline) was 0 of 10.

With `CC1CN(CCC#N)CC(C)O1` (stereo not given) the survivor count (dose: 400.0 mg/kg/injection, schedule: Q01DX009 (ip), vehicle: saline) was 10 of 10.

For `O=C(O)c1cccc2[nH]c(=O)oc(=O)c12`, the survivor count [2] was 9 of 10.
